Some of the results follow.
Legend:
Assay in all cases: glycan array binding signal (z-score within array); higher = stronger binding
Conditions in all cases: glycan notation: IUPAC condensed, linker removed
[1] = biological target: Gal3S(b1-3)[Fuc(a1-4)]GlcNAc
How it was run: (§1)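 Glycan array data were curated from 3228 arrays in the Consortium for Functional Glycomics database and kept only where the protein sequence was available. Glycan names were converted to IUPAC-condensed notation, and columns mapping to the same glycan were averaged. The binding signal is a within-array Z-score, averaged across arrays of the same protein sequence at different concentrations or buffers and across linkers. Negative Z-scores can be read as non-binding.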

Gal3S(b1-4)Glc = biological target: Gal3S(b1-4)Glc
How it was run: as §1

Gal3S(b1-4)Glc6S = biological target: Gal3S(b1-4)Glc6S
How it was run: as §1

Gal3S(b1-4)GlcNAc = biological target: Gal3S(b1-4)GlcNAc
How it was run: as §1

[2] = biological target: Gal3S(b1-4)[Fuc(a1-3)]Glc6S
How it was run: as §1

[3] = biological target: Gal3S(b1-4)[Fuc(a1-3)]GlcNAc
How it was run: as §1

[4] = biological target: Gal3S(b1-4)[Fuc(a1-3)]GlcNAc6S
How it was run: as §1

Gal3S4S(b1-4)GlcNAc = biological target: Gal3S4S(b1-4)GlcNAc
How it was run: as §1

Gal3S6S(b1-4)GlcNAc = biological target: Gal3S6S(b1-4)GlcNAc
How it was run: as §1

Gal3S6S(b1-4)GlcNAc6S = biological target: Gal3S6S(b1-4)GlcNAc6S
How it was run: as §1

Gal4S(b1-4)GlcNAc = biological target: Gal4S(b1-4)GlcNAc
How it was run: as §1

Gal4S6S(b1-4)GlcNAc = biological target: Gal4S6S(b1-4)GlcNAc
How it was run: as §1

Gal6P(b1-4)GlcNAc = biological target: Gal6P(b1-4)GlcNAc
How it was run: as §1

Gal6S(b1-3)GlcNAc = biological target: Gal6S(b1-3)GlcNAc
How it was run: as §1

Gal6S(b1-3)GlcNAc6S = biological target: Gal6S(b1-3)GlcNAc6S
How it was run: as §1

Gal6S(b1-4)Glc = biological target: Gal6S(b1-4)Glc
How it was run: as §1

Gal6S(b1-4)Glc6S = biological target: Gal6S(b1-4)Glc6S
How it was run: as §1

Gal6S(b1-4)GlcNAc = biological target: Gal6S(b1-4)GlcNAc
How it was run: as §1

Gal6S(b1-4)GlcNAc6S = biological target: Gal6S(b1-4)GlcNAc6S
How it was run: as §1

GalNAc(a1-3)Gal = biological target: GalNAc(a1-3)Gal
How it was run: as §1

GalNAc(a1-3)GalNAc = biological target: GalNAc(a1-3)GalNAc
How it was run: as §1

[5] = biological target: GalNAc(a1-3)GalNAc(b1-3)Gal(a1-4)Gal(b1-4)Glc
How it was run: as §1

[6] = biological target: GalNAc(a1-3)GalNAc(b1-3)Gal(a1-4)Gal(b1-4)GlcNAc
How it was run: as §1

GalNAc(b1-3)Gal = biological target: GalNAc(b1-3)Gal
How it was run: as §1

[7] = biological target: GalNAc(b1-3)Gal(a1-4)Gal(b1-4)GlcNAc
How it was run: as §1

[8] = biological target: GalNAc(b1-3)Gal(a1-4)Gal(b1-4)GlcNAc(b1-3)Gal(b1-4)Glc
How it was run: as §1

[9] = biological target: GalNAc(b1-3)Gal(a1-6)Gal(b1-4)Glc
How it was run: as §1

GalNAc(b1-3)GalNAc = biological target: GalNAc(b1-3)GalNAc
How it was run: as §1

GalNAc(b1-3)GlcNAc = biological target: GalNAc(b1-3)GlcNAc
How it was run: as §1

GalNAc(b1-4)Gal(b1-4)Glc = biological target: GalNAc(b1-4)Gal(b1-4)Glc
How it was run: as §1

GalNAc(b1-4)GlcNAc = biological target: GalNAc(b1-4)GlcNAc
How it was run: as §1

[10] = biological target: GalNAc(b1-4)GlcNAc(b1-2)Man
How it was run: as §1

[11] = biological target: GalNAc(b1-4)GlcNAc(b1-2)Man(a1-3)[GalNAc(b1-4)GlcNAc(b1-2)Man(a1-6)]Man(b1-4)GlcNAc(b1-4)GlcNAc
How it was run: as §1

[12] = biological target: GalNAc(b1-4)GlcNAc(b1-3)GalNAc(b1-4)GlcNAc
How it was run: as §1

GalNAc(b1-4)GlcNAc6S = biological target: GalNAc(b1-4)GlcNAc6S
How it was run: as §1

GalNAc(b1-6)GalNAc = biological target: GalNAc(b1-6)GalNAc
How it was run: as §1

GalNAc3S(b1-4)GlcNAc = biological target: GalNAc3S(b1-4)GlcNAc
How it was run: as §1

GalNAc3S(b1-4)GlcNAc3S = biological target: GalNAc3S(b1-4)GlcNAc3S
How it was run: as §1

[13] = biological target: GalNAc3S(b1-4)[Fuc(a1-3)]GlcNAc
How it was run: as §1

GalNAc4S6S(b1-4)GlcNAc = biological target: GalNAc4S6S(b1-4)GlcNAc
How it was run: as §1

GalNAc6S(b1-4)GlcNAc = biological target: GalNAc6S(b1-4)GlcNAc
How it was run: as §1

Glc(a1-4)Glc = biological target: Glc(a1-4)Glc
How it was run: as §1

[14] = biological target: Glc(a1-4)Glc(a1-4)Glc(a1-4)Glc
How it was run: as §1

Glc(a1-6)Glc(a1-6)Glc = biological target: Glc(a1-6)Glc(a1-6)Glc
How it was run: as §1

[15] = biological target: Glc(a1-6)Glc(a1-6)Glc(a1-6)Glc
How it was run: as §1

B1: BIp1-His (Cryptococcus neoformans) (protein)
chain: MFTKIFVALFAATAVLSAPVESAEKRITHTGRATFYSPSVGIGACGWQNTDEELVVALNAPQYALNADHNCGQSVRITNEQNGNQEIAKVVDLCPGCNDGDLDMSPALFGALNNNDFDQGVFPISWNFLPRDDTSSSN
In the case of B1, the “glycan array binding signal (z-score)” value [1] is reported as 0.468, the “glycan array binding signal (z-score)” value (Gal3S(b1-4)Glc) is reported as -0.094 and the “glycan array binding signal (z-score)” value (Gal3S(b1-4)Glc6S) is reported as 0.642. The “glycan array binding signal (z-score)” value (Gal3S(b1-4)GlcNAc) was 0.425, the “glycan array binding signal (z-score)” value [2] was 1.75 and the “glycan array binding signal (z-score)” value [3] was -0.128. For the same binder, the “glycan array binding signal (z-score)” value [4] was 1.26, the “glycan array binding signal (z-score)” value (Gal3S4S(b1-4)GlcNAc) was 0.045 and the “glycan array binding signal (z-score)” value (Gal3S6S(b1-4)GlcNAc) was 0.853. For the same binder, the “glycan array binding signal (z-score)” value (Gal3S6S(b1-4)GlcNAc6S) was 1.12, the “glycan array binding signal (z-score)” value (Gal4S(b1-4)GlcNAc) was -0.25 and the “glycan array binding signal (z-score)” value (Gal4S6S(b1-4)GlcNAc) was -0.804. For the same binder, the “glycan array binding signal (z-score)” value (Gal6P(b1-4)GlcNAc) was -1.05, the “glycan array binding signal (z-score)” value (Gal6S(b1-3)GlcNAc) was -0.386 and the “glycan array binding signal (z-score)” value (Gal6S(b1-3)GlcNAc6S) was -0.624. For the same binder, the “glycan array binding signal (z-score)” value (Gal6S(b1-4)Glc) was -0.039, the “glycan array binding signal (z-score)” value (Gal6S(b1-4)Glc6S) was -0.645 and the “glycan array binding signal (z-score)” value (Gal6S(b1-4)GlcNAc) was 0.547. For the same binder, the “glycan array binding signal (z-score)” value (Gal6S(b1-4)GlcNAc6S) was 0.298, the “glycan array binding signal (z-score)” value (GalNAc(a1-3)Gal) was 0.043 and the “glycan array binding signal (z-score)” value (GalNAc(a1-3)GalNAc) was 0.617. The “glycan array binding signal (z-score)” value [5] was 0.395, the “glycan array binding signal (z-score)” value [6] was -0.181 and the “glycan array binding signal (z-score)” value (GalNAc(b1-3)Gal) was -0.111. The “glycan array binding signal (z-score)” value [7] was 0.069, the “glycan array binding signal (z-score)” value [8] was -0.061 and the “glycan array binding signal (z-score)” value [9] was 1.26. For the same binder, the “glycan array binding signal (z-score)” value (GalNAc(b1-3)GalNAc) was -0.776, the “glycan array binding signal (z-score)” value (GalNAc(b1-3)GlcNAc) was -0.399 and the “glycan array binding signal (z-score)” value (GalNAc(b1-4)Gal(b1-4)Glc) was 0.482. For the same binder, the “glycan array binding signal (z-score)” value (GalNAc(b1-4)GlcNAc) was 0.327, the “glycan array binding signal (z-score)” value [10] was -1.18 and the “glycan array binding signal (z-score)” value [11] was 0.461. The “glycan array binding signal (z-score)” value [12] was -0.335, the “glycan array binding signal (z-score)” value (GalNAc(b1-4)GlcNAc6S) was 0.287 and the “glycan array binding signal (z-score)” value (GalNAc(b1-6)GalNAc) was -0.887. The “glycan array binding signal (z-score)” value (GalNAc3S(b1-4)GlcNAc) was 0.365, the “glycan array binding signal (z-score)” value (GalNAc3S(b1-4)GlcNAc3S) was 0.379 and the “glycan array binding signal (z-score)” value [13] was -0.751. For the same binder, the “glycan array binding signal (z-score)” value (GalNAc4S6S(b1-4)GlcNAc) was 0.577, the “glycan array binding signal (z-score)” value (GalNAc6S(b1-4)GlcNAc) was -0.533 and the “glycan array binding signal (z-score)” value (Glc(a1-4)Glc) was -0.489. For the same binder, the “glycan array binding signal (z-score)” value [14] was 1.1, the “glycan array binding signal (z-score)” value (Glc(a1-6)Glc(a1-6)Glc) was -0.071 and the “glycan array binding signal (z-score)” value [15] was -0.635.
